Laboratory results: patent publication US9447062B2, “Manumycin-type metabolite called Colabomycin E which inhibits caspase 1 and creation of interleukins, strain produces the Colabomycin E and a method of a production of the Colabomycin E” (BIOLOGY CENTRE AS CR, v. v. i., priority 2014, dated 2016)
Some entries share one result that the patent states for a list of compounds. At least one compound was matched to its structure with a doubt left.

System: THP-1 cells
Test: THP-1 cell viability
Type: cell-based, human
Settings: THP-1 macrophages stimulated by TNFa 50 ng/mL

## CCCC[C@@H](C)/C=C(C)/C=C(\C)C(=O)NC1=C[C@@](O)(/C=C/C=C/C=C/C(=O)NC2=C(O)CCC2=O)[C@@H]2O[C@@H]2C1=O [manumycin A, reference compound]
  concentration at which THP-1 cell viability began to decrease: ≥ 2 mm
